Holding throughout (assay): affinity purification with mass spectrometry; GFP-Trap A beads with 5 mg total protein extract of plants expressing YFP-CESA6 or LTi6b-GFP (control), overnight at 4°C; extraction buffer 100 mM Tris-HCl pH 7.5, 150 mM NaCl, 0.2% Nonidet P-40; washes with 150 mM and 500 mM NaCl; on-bead trypsin digestion, LC-MS/MS
For experiment [1], the target named is T1, YFP-CESA6 (Arabidopsis thaliana) (UniProt Q94JQ6).
T1 sequence: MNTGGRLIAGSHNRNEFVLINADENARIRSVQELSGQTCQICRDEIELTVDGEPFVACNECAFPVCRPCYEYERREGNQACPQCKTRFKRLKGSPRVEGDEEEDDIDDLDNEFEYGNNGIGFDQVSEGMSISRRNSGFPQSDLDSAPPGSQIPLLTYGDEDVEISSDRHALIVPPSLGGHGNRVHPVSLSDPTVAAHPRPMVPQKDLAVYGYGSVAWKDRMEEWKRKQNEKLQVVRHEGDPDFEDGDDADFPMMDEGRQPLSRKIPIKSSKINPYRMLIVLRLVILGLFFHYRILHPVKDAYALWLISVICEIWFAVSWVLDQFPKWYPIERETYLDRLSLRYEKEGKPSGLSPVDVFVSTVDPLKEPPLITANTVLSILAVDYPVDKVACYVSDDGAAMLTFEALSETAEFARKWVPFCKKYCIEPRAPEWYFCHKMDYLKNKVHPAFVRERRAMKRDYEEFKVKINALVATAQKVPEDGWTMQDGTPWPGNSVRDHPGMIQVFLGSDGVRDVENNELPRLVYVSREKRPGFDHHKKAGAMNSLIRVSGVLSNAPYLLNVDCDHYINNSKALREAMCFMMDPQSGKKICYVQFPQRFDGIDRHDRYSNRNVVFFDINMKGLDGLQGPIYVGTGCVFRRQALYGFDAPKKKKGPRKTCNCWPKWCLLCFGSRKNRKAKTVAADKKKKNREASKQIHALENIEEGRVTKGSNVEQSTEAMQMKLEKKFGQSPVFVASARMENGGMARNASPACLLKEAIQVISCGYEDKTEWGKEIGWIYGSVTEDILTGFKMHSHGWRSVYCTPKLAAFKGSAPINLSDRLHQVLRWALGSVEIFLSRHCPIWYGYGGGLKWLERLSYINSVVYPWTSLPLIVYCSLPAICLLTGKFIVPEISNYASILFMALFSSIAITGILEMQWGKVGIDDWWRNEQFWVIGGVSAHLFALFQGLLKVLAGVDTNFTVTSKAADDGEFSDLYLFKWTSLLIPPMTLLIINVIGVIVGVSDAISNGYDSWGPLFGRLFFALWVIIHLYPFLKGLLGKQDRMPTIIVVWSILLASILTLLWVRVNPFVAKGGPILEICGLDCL

By UniProt entry, the sequences of proteins in these tests, tags left out. Where a name states a change or a piece, a line headed by the entry shows the natural chain unless it says otherwise.
UniProt Q9ZRE2: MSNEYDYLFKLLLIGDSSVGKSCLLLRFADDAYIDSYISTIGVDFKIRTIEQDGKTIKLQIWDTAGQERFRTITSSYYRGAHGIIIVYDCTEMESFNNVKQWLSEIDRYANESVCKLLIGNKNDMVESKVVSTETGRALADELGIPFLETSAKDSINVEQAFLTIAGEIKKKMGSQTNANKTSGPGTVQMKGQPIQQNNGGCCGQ
UniProt F4I1B4: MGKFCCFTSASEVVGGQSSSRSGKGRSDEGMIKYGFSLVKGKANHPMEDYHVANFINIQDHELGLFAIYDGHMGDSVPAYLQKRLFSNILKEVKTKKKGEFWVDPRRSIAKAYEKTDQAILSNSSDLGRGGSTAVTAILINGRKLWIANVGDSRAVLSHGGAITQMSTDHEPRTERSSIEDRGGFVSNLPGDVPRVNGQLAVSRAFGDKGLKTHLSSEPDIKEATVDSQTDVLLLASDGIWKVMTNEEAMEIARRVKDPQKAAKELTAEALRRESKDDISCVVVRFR
UniProt F4IIM1: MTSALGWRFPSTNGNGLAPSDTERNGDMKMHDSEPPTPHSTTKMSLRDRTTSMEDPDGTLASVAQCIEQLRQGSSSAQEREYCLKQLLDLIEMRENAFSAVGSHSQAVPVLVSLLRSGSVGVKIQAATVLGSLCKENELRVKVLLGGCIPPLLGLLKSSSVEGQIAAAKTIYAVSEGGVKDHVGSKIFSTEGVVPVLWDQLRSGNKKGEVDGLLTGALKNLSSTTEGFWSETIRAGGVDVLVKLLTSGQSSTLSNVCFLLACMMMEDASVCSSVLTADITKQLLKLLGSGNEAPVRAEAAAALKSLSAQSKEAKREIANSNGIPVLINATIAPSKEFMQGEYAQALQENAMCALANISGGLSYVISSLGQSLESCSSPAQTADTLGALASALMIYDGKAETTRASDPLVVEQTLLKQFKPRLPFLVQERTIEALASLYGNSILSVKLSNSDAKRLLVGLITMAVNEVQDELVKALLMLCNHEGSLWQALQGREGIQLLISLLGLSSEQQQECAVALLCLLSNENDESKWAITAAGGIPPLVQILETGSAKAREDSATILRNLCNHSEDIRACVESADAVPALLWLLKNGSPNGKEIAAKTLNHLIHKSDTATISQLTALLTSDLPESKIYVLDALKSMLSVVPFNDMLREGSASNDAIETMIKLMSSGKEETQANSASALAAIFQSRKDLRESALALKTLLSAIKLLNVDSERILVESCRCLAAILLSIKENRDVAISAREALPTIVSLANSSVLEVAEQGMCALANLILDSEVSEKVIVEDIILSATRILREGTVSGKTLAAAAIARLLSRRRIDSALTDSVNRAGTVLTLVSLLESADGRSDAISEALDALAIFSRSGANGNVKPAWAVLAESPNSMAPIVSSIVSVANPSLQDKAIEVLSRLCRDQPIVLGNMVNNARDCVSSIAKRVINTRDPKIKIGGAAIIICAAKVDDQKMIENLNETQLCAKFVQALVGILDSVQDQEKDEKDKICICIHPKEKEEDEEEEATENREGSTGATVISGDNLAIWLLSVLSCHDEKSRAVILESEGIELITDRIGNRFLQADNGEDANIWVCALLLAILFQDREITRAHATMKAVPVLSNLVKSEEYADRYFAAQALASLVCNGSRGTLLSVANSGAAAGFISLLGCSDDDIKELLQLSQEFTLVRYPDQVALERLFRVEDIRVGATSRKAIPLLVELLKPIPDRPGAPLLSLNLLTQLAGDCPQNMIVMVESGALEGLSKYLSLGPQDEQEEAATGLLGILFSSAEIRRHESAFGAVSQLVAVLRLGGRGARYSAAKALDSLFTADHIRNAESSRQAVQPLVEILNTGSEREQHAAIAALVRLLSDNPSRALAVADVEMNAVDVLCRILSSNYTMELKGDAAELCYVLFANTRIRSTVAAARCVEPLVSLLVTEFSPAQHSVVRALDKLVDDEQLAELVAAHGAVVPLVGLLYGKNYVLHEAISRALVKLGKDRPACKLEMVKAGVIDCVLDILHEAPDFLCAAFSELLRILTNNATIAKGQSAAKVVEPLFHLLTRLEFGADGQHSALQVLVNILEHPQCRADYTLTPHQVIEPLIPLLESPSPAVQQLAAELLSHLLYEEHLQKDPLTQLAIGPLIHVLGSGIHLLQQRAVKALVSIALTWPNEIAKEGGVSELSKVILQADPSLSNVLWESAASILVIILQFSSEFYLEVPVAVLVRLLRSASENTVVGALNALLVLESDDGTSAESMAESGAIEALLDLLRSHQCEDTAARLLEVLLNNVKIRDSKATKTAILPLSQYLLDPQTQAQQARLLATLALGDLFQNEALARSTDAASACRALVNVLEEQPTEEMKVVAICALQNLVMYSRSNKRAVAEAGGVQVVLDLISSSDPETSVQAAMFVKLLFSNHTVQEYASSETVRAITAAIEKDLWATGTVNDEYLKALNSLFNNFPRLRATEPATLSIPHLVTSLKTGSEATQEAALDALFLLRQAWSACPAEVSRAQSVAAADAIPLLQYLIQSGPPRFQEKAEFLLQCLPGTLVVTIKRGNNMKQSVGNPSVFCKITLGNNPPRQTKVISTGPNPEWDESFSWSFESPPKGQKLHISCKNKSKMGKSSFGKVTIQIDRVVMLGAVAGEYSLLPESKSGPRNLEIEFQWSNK

Experiment [2] has as its target T1, YFP-CESA6 (Arabidopsis thaliana). This is another data set of the same source.
The target of experiment [3] is T2, LTi6b-GFP (Arabidopsis thaliana) (UniProt Q9ZNS6).
T2 sequence: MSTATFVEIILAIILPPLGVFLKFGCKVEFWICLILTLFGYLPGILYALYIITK

Experiment [4] concerns the target T3, YFP-CESA6 (Arabidopsis thaliana), Q94JQ6.
T3 chain: T1 sequence
The following applies: remark: other sources report otherwise.

Where two headings read alike, the source gives them in different places. These are yes or no findings as the source states them, for the method shown. Binding seen in cells or lysates may run through a third protein. Here binding means that the protein was enriched with, or labelled near, the bait; the list need not be complete. For some of these results: No binding means not detected with the bait. Sequences can lack the tags named with a protein.

Take RABD1 (from UniProt Q9ZRE2 1-205): the binding entry in experiment [1] was “binds”.
On to “PHYTOCHROME-ASSOCIATED PROTEIN PHOSPHATASE TYPE 2C (from UniProt F4I1B4) (enzyme)”, for which the binding entry in experiment [1] is on record as “binds”.
Turning to CSI1 (from UniProt F4IIM1 1-2150), the binding entry in experiment [1] is recorded as “binds”.

B1: VAMP727 (protein, UniProt Q9M376 1-240)
chain: MSQKGLIYSFVAKGTVVLAEHTPYSGNFSTIAVQCLQKLPTNSSKYTYSCDGHTFNFLVDNGFVFLVVADESTGRSVPFVFLERVKEDFKKRYEASIKNDERHPLADEDEDDDLFGDRFSVAYNLDREFGPILKEHMQYCMSHPEEMSKLSKLKAQITEVKGIMMDNIEKVLDRGEKIELLVDKTENLQFQADSFQRQGRQLRRKMWLQSLQMKLMVAGAVFSFILIVWVVACGGFKCSS
As for B1, in experiment [2], the binding entry is on record as “binds”.

B2: TIP GROWTH … 1 (enzyme, UniProt Q52T38 1-620)
chain: MSSEIEVVEEIQSNPKENGESSSKGIEEESLKNDVYTAAAYGDLEKLHRLVECEGSSVSEPDALGYYALQWSALNNRVAVAQYLIEHGGDVNATDHTGQTALHWSAVRGAIQVAELLLQEGARVDATDMYGYQATHVAAQYGQTAFLCHVVSKWNADPDVPDNDGRSPLHWAAYKGFADSIRLLLFLDAYRGRQDKEGCTPLHWAAIRGNLEACTVLVQAGKKEDLMITDKTGLTPAQLAAEKNHRQVSFFLGNARSLLEKRCDGSSPLGRLSKLGLAPVLWIMILLLLLVYTNSVVLASNLPKLTTGIGALAWLGFILATAGLFLFYRCSRKDPGYIRMNIHDPQTMKDDEPLLKIELNNPALLAGNWTQLCATCKIIRPLRAKHCSTCDRCVEQFDHHCPWVSNCVGKKNKWEFFLFLLLEVLAMLITGGVTLARVLSDPSAPSSFGAWMSHVASNHVGALSFLLVEFCLFFSVAVLTVIQASQISRNITTNEMANALRYSYLRGPGGRFRNPYDLGCRRNCSDFLVKGYNEDIECHEEDATQRPEGISMMQMQRNPNLQNGNGHVAIDVNPTHNSQSAHVHSANCSHSHNSKSKSDNVPLGLGLGLSRNPTRPVVSP
As to B2, the values for the binding result in experiment [3] and in experiment [2] were “no binding” and “binds”, respectively.

B3: KORRIGAN, Q38890 1-621 (protein)
chain: MYGRDPWGGPLEINTADSATDDDRSRNLNDLDRAALSRPLDETQQSWLLGPTEQKKKKYVDLGCIIVSRKIFVWTVGTLVAAALLAGFITLIVKTVPRHHPKTPPPDNYTIALHKALKFFNAQKSGKLPKHNNVSWRGNSGLQDGKGETGSFYKDLVGGYYDAGDAIKFNFPMAYAMTMLSWSVIEYSAKYEAAGELTHVKELIKWGTDYFLKTFNSTADSIDDLVSQVGSGNTDDGNTDPNDHYCWMRPEDMDYKRPVTTCNGGCSDLAAEMAAALASASIVFKDNKEYSKKLVHGAKVVYQFGRTRRGRYSAGTAESSKFYNSSMYWDEFIWGGAWMYYATGNVTYLNLITQPTMAKHAGAFWGGPYYGVFSWDNKLAGAQLLLSRLRLFLSPGYPYEEILRTFHNQTSIVMCSYLPIFNKFNRTNGGLIELNHGAPQPLQYSVNAAFLATLYSDYLDAADTPGWYCGPNFYSTSVLRDFARSQIDYILGKNPRKMSYVVGFGTKYPRHVHHRGASIPKNKVKYNCKGGWKWRDSKKPNPNTIEGAMVAGPDKRDGYRDVRMNYNYTEPTLAGNAGLVAALVALSGEEEATGKIDKNTIFSAVPPLFPTPPPPPAPWKP
With B3, the binding result in experiment [4] is “no binding”.
